The nature of data set [1]: Photo-DSC of PEGDA575 with 1% photo-initiator. The format is physicochemical. As to conditions: 365 nm, 25° C.
A short description of data set [2]: Photorheology of PEGDA575 in PBS with 1% photo-initiator. The conditions noted are these: for G′ value: stable or final value. The format is physicochemical.
The mark [3] stands for this setting: 20% PEGDA575 in PBS, 1% initiator, 365 nm.
Where [4] appears, read: 50% PEGDA575 in PBS, 1% initiator, 365 nm.

Regarding `O=C(O)c1ccc(C2(C(F)(F)F)N=N2)cc1` [DzCOOH, 4-[3-(Trifluoromethyl)-3H-diazirin-3-yl]benzoic acid], the heat flow in data set [1] (100% PEGDA575, 1% initiator) is around 75 mW. For the same compound, the “G′ value” is reported as 10^5 Pa in data set [2] (setting [3]) and 10^4 Pa in data set [2] (setting [4]).

For `OCc1ccc(C2(C(F)(F)F)N=N2)cc1` [DzOH, 4-[3-(Trifluoromethyl)-3H-diazirin-3-yl]benzyl alcohol], in data set [1] (100% PEGDA575, 1% initiator), the heat flow was around 45 mW. The “curing activity on the rheometer” value in data set [2] (10% PEGDA575 in PBS) is “no curing activity observed”. Besides, the “G′ value” in data set [2] (setting [4]) is reported as ~10^6 Pa.

Consider `Cc1cc(C)c(C(=O)P(=O)(c2ccccc2)c2ccccc2)c(C)c1` [TPO, Diphenyl(2,4,6-trimethylbenzoyl)phosphine oxide, reference compound], for which the heat flow result is on record as “around 18 mW” in data set [1] (20% PEGDA575 in PBS, 1% initiator) and 130 mW in data set [1] (100% PEGDA575, 1% initiator). In addition, the “G′ peak” value in data set [2] (20% PEGDA575 in PBS, 1% initiator, 365 nm, peak before decrease) was 10^5 Pa. Further, the “G′ value” in data set [2] (setting [3]) and in data set [2] (setting [4]) was 10^4 Pa in each case.
